In PubChem BioAssay AID504467 (National Center for Advancing Translational Sciences (NCATS), 2011):
Hit rate of the full screen: of about 330,000 compounds, about 7,700 (2.3%) were called active. Inconclusive results, whose numbers are uncertain, are shown with a selection of clear calls. Calls follow the shape of the dose curve; as a rule, active = well fitted inhibition curve with a large enough effect; inconclusive = small, poorly fitted or top-dose-only effect, or effect the other way; inactive = flat fitted curve, though single readings scatter. Where the call is inconclusive, the potency comes from a doubtful curve fit.

Assay: qHTS screen for small molecules that inhibit ELG1-dependent DNA repair in human embryonic kidney (HEK293T) cells expressing luciferase-tagged ELG1; also: nearly all actives have a fitted effect of over 55% in size
Details: HEK293T ELG1-luciferase reporter, luminescence, 16 h, DNA damage induced by 5-fluorouridine; series mostly up to 46.1 µM
Outline: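 In this reporter screen, reduction of luminescence relative to DMSO vehicle indicated activity. Compounds and 5-fluorouridine were added together to 2,000 cells per well, incubated for 16 hr at 37 °C, then developed with ONE-Glo.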
Potency is read from the fitted curve at half-maximal effect.

Row | Compound | Potency
1 | O=C(NCCCN1CCOCC1)c1cnn2c(-c3ccccc3)cc(-c3ccccc3)nc12 | inconclusive: 13 µM [inhibitor, partial curve, poor fit]
2 | CC(C)Cc1ccc(S(=O)(=O)NCC2CCCO2)cc1 (centres undefined) | inactive
3 | C=CCNC(=S)N/N=C/c1ccc(-c2ccc(OC)cc2)o1 | inconclusive: 29.1 µM [inhibitor, single point]
4 | CCOC(=O)c1c(NC(=O)C2c3ccccc3Oc3ccccc32)sc(C(=O)N(CC)CC)c1C | inconclusive: 29.1 µM [inhibitor, single point]
5 | CC1CCN(C(=O)C2CCC(CNS(=O)(=O)c3cccc4cccnc34)CC2)CC1 (centres undefined) | inconclusive: 18.4 µM [inhibitor, single point]
6 | O=c1c(/C=N/Nc2ccccc2)c(Sc2nnnn2-c2ccccc2)nc2ccccn12 | inconclusive: 3.26 µM [activator, partial curve]
7 | O=C(NC1CCC(O)CC1)c1ccc(-c2ccc([N+](=O)[O-])cc2)o1 (centres undefined) | inconclusive: 18.3 µM [activator, partial curve, poor fit]
8 | CN1C(=O)/C(=C\C=C2/CCCN2C)N(C)C1=S | inconclusive: 18.3 µM [activator, single point]
9 | CCN(CC)S(=O)(=O)c1ccc(NC(=O)c2cccnc2Cl)c(NC(=O)c2cccnc2Cl)c1 | inconclusive: 23.1 µM [inhibitor, single point]
10 | COC(=O)C(CC(=O)c1ccc(Cl)cc1)c1ccc(C(C)C)cc1 (centres undefined) | inconclusive: 29.1 µM [activator, single point]
11 | CCOC(=O)c1c(NC(=O)CSc2nc3cccnc3n2C)sc(C(C)=O)c1C | inconclusive: 4.11 µM [inhibitor, single point]
12 | Cc1nn(-c2ccccc2)c(N2CCCC2)c1/C=N/Nc1ccc(S(=O)(=O)Nc2ccccc2)cc1[N+](=O)[O-] | inactive
13 | Cc1nc2ccccc2n1CC(=O)c1ccccc1 | inconclusive: 14.6 µM [inhibitor, partial curve, poor fit]
14 | COC(=O)c1[nH]c2ccccc2c1NC(=O)C(C)N1CC(C)OC(C)C1 (centres undefined) | inactive
15 | COc1cccc(C(=O)NC2CC3CCC(C2)N3Cc2ccccc2)c1 (centres undefined) | inactive
16 | Cc1ccccc1OCC(O)Cn1c(Br)nc2c1c(=O)n(C)c(=O)n2C (centres undefined) | inconclusive: 20.6 µM [inhibitor, single point]
17 | Cc1ccc(C(=O)NCCc2nnc3ccc(SCC(=O)N4CCCC4)nn23)cc1 | inconclusive: 16.4 µM [activator, single point]
18 | O=C1C(=O)c2ccccc2C(O)=C1c1cccc([N+](=O)[O-])c1 | inconclusive: 3.66 µM [inhibitor, single point]
19 | CCN1CCN(CCCN(Cc2ccco2)C(=S)Nc2ccc(Cl)c(C)c2)CC1 | inactive
20 | COC(=O)N1C(=O)[C@@](c2ccc(OC)cc2)(C(C)C)N1C(=O)OC | inconclusive: 2.31 µM [activator, single point]
21 | O=C(COC(=O)c1ccccc1Br)NCC1CCCO1 (centres undefined) | inconclusive: 7.3 µM [activator, single point]
22 | Cc1ccc(NC(=O)CSc2nc3ccccc3c3nc(CCc4c(C)n[nH]c4C)nn23)cc1F | inconclusive: 3.26 µM [inhibitor, full curve]
23 | O=C1CCC/C(=N/NC(=O)c2ccc(CN3c4cccc5cccc(c45)S3(=O)=O)cc2)C1 | inconclusive: 9.2 µM [inhibitor, partial curve]

Quoted at random: 3 entries already listed
Row | Compound | Potency
14 | COC(=O)c1[nH]c2ccccc2c1NC(=O)C(C)N1CC(C)OC(C)C1 (centres undefined) | inactive
2 | CC(C)Cc1ccc(S(=O)(=O)NCC2CCCO2)cc1 (centres undefined) | inactive
6 | O=c1c(/C=N/Nc2ccccc2)c(Sc2nnnn2-c2ccccc2)nc2ccccn12 | inconclusive: 3.26 µM [activator, partial curve]

An excerpt from above in order of count of non-hydrogen atoms, rising:
Row | Compound | Potency
13 | Cc1nc2ccccc2n1CC(=O)c1ccccc1 | inconclusive: 14.6 µM [inhibitor, partial curve, poor fit]
19 | CCN1CCN(CCCN(Cc2ccco2)C(=S)Nc2ccc(Cl)c(C)c2)CC1 | inactive
17 | Cc1ccc(C(=O)NCCc2nnc3ccc(SCC(=O)N4CCCC4)nn23)cc1 | inconclusive: 16.4 µM [activator, single point]

Carrying on.

Row | Compound | Potency
24 | O=C(CCc1nc(-c2ccccc2F)no1)NC1CCN(Cc2ccccc2)CC1 | inconclusive: 20.6 µM [inhibitor, single point]
25 | N#C/C(=N\Nc1ccccc1)C(=N)N1CCOCC1 | inconclusive: 20.6 µM [activator, single point]
26 | CCCCn1c(NCCN(C)C)nc2c1c(=O)[nH]c(=O)n2C | inactive
27 | CCOC(=O)c1cc(C(=O)OCC)c(=O)[nH]c1C | inactive
28 | Cc1ccc(NC(=O)CCN2CCN(C/C=C/c3ccccc3)CC2)cc1C | inactive
29 | Cc1cccc(-n2ncc3c(Nc4ccc(F)cc4)ncnc32)c1 | inconclusive: 3.26 µM [activator, partial curve]
30 | O=C(CNC(=O)c1ccncc1)N/N=C/c1ccc(O)cc1O | inactive
31 | CCOc1ccccc1C(=O)NC(C(=O)NCc1ccccc1OC)C(C)C (centres undefined) | inconclusive: 16.4 µM [inhibitor, single point]
32 | C/C(=N/NC(=O)c1ccncc1)c1ccc(NC(=O)c2ccccc2)cc1 | inconclusive: 16.4 µM [activator, single point]
33 | COc1c(/C=N/Nc2ccc(C(=O)O)cc2)c(CCN(C)C(C)=O)cc2c1OCO2 | inconclusive: 23.1 µM [activator, partial curve, poor fit]
34 | O=C(c1cc(COc2ccc(F)cc2Cl)on1)N1CC2C[C@@H]3CC1C[C@H](C2)C3 | inconclusive: 3.66 µM [activator, full curve]
35 | COc1ccc(/C=C2\SC(N)=NC2=O)cc1Br | inconclusive: 18.3 µM [activator, single point]
36 | CCNc1nc(-c2cc3ccccc3o2)cs1 | inconclusive: 1.3 µM [activator, full curve]
37 | CC1CCCN(C(=O)CCc2nnc(-c3ccc4c(c3)OCO4)o2)C1 (centres undefined) | inconclusive: 16.4 µM [activator, single point]
38 | CCOc1ccc(OCc2cccc(C(=O)N3CCCCCC3)c2)cc1 | inconclusive: 0.461 µM [activator, full curve]
39 | O=C1C(Cl)=C(N2CCOCC2)C(=O)N1CCc1ccccc1 | inconclusive: 18.4 µM [activator, partial curve]
40 | CCCC(=O)Nc1nc2c(s1)COc1ccccc1-2 | inconclusive: 18.3 µM [inhibitor, single point]
41 | CCCCCn1c(=O)c2ccccc2n2c(=S)[nH]nc12 | inactive
42 | CN(C(=S)Oc1ccc(C(=O)Nc2ccccc2)cc1)c1ccccc1 | active: 18.4 µM
43 | Cc1cc(NC(=O)c2ccccc2)ccc1NC(=O)Cc1ccccc1 | inactive
44 | COc1ccccc1CNCc1cccc(Oc2ccccc2)c1 | inactive
45 | O=S(=O)(Nc1cc(Sc2cccc3cccnc23)c(O)c2ccccc12)c1ccc(F)cc1 | active: 9.2 µM
46 | CC(=O)Nc1ccc(S(=O)(=O)N(C)Cc2ccccc2)cc1 | inactive

Row | Compound | Potency
47 | CNS(=O)(=O)c1cccc2nsnc12 | inconclusive: 16.4 µM [activator, partial curve, poor fit]
48 | CC(=O)Nc1ccc(OC(=O)c2ccco2)cc1 | inconclusive: 32.6 µM [activator, partial curve, poor fit]
49 | COc1ccc(-n2c(=S)[nH]c3cc(C(=O)Nc4ccccc4OC)ccc3c2=O)c(OC)c1 | active: 16.4 µM
50 | CC(=O)Nc1cccc(/C(C)=N/NC(=S)NC(C)C)c1 | inconclusive: 29.1 µM [activator, partial curve, poor fit]
51 | CCN(CC)CCNC(=S)Nc1ccc(Cl)cc1 | inactive
52 | O=C(/C=C/Nc1ccccc1)c1ccc(Oc2ncccn2)cc1 | inconclusive: 3.16 µM [activator, partial curve, poor fit]
53 | COc1ccc(-c2nc(N)nc(C)c2Oc2ccccc2Br)c(O)c1 | inconclusive: 35.5 µM [inhibitor, single point]
54 | O=C(CS(=O)(=O)c1ccccc1)Nc1nc(-c2ccccc2)cs1 | inactive
55 | COC(=O)/C=C(\C)NC(=O)c1ccccc1Cl | inconclusive: 8.91 µM [activator, single point]
56 | COc1ccc(-n2c(=S)[nH]c3cc(C(=O)NC4CCCCC4)ccc3c2=O)c(OC)c1 | inactive
57 | COc1ccccc1NC(=O)CC1C(=O)NCCN1C(=O)Nc1ccc(Cl)c(Cl)c1 (centres undefined) | inactive
58 | COc1ccc(CNc2nc3ccccc3n2C)c(OC)c1 | inconclusive: 9.2 µM [activator, partial curve]
59 | COC(=O)c1[nH]c2cc(OC)c(OC)cc2c1/C=N/Nc1ccccc1 | inconclusive: 16.4 µM [inhibitor, single point]
60 | CCC(C)N(C(=O)CSc1ccc(NC(C)=O)cc1)C1CCS(=O)(=O)C1 (centres undefined) | inactive
61 | CC(Oc1ccc(Cl)cc1Cl)c1ccnc2nc(N3CCOCC3)nn12 (centres undefined) | inconclusive: 0.73 µM [inhibitor, partial curve, poor fit]
62 | Cc1cccc(N2CCN(C(=O)c3c(C)nn(Cc4ccccc4Cl)c3C)CC2)c1C | active: 20.6 µM
63 | COc1ccc(-n2nc([N+](=O)[O-])c(=NCCc3ccc(OC)c(OC)c3)n2O)cc1 | inconclusive: 20.6 µM [inhibitor, partial curve]
64 | CS(=O)(=O)N1CCN(CCN2C(=O)c3cccc4cccc(c34)C2=O)CC1 | inconclusive: 9.2 µM [inhibitor, partial curve, poor fit]
65 | COc1ccc2sc(N(CCCN(C)C)C(=O)c3ccc(S(=O)(=O)N4CCCc5ccccc54)cc3)nc2c1 | inconclusive: 29.1 µM [inhibitor, single point]
66 | CCCOC(=O)c1ccc(Oc2cn[nH]c2-c2ccc(OC)cc2O)cc1 | inconclusive: 32.6 µM [inhibitor, single point]
67 | CC(=O)Nc1ccc(NC(=O)COC(=O)c2c(C)nn(-c3ccccc3)c2C)cc1 | inactive
68 | CCOC(=O)C1CCN(S(=O)(=O)c2ccc3c(c2)CCN3C(=O)C2CCC2)CC1 | inconclusive: 25.9 µM [inhibitor, partial curve, poor fit]
69 | C=C(C)C1Cc2c(C)nn(-c3cccc4cccnc34)c2C1 (centres undefined) | inconclusive: 29.1 µM [inhibitor, single point]
